About 220 (0.063%) of roughly 350,000 compounds were called active. Inconclusive results, whose numbers are uncertain, are shown with a selection of clear calls. Calls follow the shape of the dose curve; as a rule, active = well fitted activation curve with a large enough effect; inconclusive = small, poorly fitted or top-dose-only effect; inactive = no such curve, though single readings can be large or run the other way. Potencies of inconclusive entries are doubtful fits and often do not repeat.
assay: qHTS for Activators of Integrin-Mediated Alleviation for Muscular Dystrophy; conditions: alpha7betagal myoblasts, beta-gal FDG fluorescence, 48 h; activation: at 38.3 µM (top of the series); also: nearly all actives have a fitted effect of over 60% in size;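 as to activation: 100% = response of the positive control SU9516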
Summary of the method: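 alpha7betagal+/- myoblasts (passage 13, 250/well) treated 48 h at 37C with compounds at 1:260 dilution of DMSO stock. Lysed, then beta-galactosidase activity read as FDG fluorescence (ex 480/em 540) after 30 min, with pre-read for autofluorescence.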
Potency is read from the fitted curve at half-maximal effect.

Which “activation” value does the source give for CCOc1ccc(Nc2nc3ccccc3n2C)cc1 here?
The value was inactive: 22.5%.

With CSc1ccccc1NC(=O)CN(C)CC(=O)Nc1ccc(Cl)cc1F as the molecule, how does the Potency read?
The Potency was inconclusive: 3.98 µM [activator, partial curve, poor fit].

For CC1=C(C)CC(C(=O)N2CCN(Cc3ccccc3)CC2)C(C(=O)O)C1 (stereo not given), which Potency is on record?
Its Potency is inconclusive: 28.2 µM [activator, single point].

With CCCCNc1ncnc2c1cnn2-c1ccccc1 as the molecule, how does the “activation” value read?
Its value is inactive: -8.15%.

For N/C(=N\OC(=O)/C=C/c1ccccc1Cl)c1ccncc1, which “activation” value is on record?
The value was inactive: -33.7%.

Which Potency does the source give for COc1ccc(-c2cn[nH]c2-c2ccc(OCc3ccc([N+](=O)[O-])cc3)cc2O)cc1 here?
The Potency was inconclusive: 2.51 µM [activator, partial curve, poor fit].

For O=C(NCCCN1CCOCC1)c1cc(S(=O)(=O)N2CCOCC2)c(Cl)cc1Cl, which Potency is on record?
Its Potency is inconclusive: 5.01 µM [activator, single point].

For c1ccc(C2=Nn3c(nnc3-c3n[nH]c4c3CCC4)SC2)cc1, which Potency is on record?
Its Potency is inconclusive: 2.82 µM [activator, partial curve, poor fit].

Which Potency does the source give for CCOC(=O)/C(C#N)=C\c1c(C)cc(C)c(COC(C)=O)c1C here?
The Potency was inconclusive: 2.82 µM [activator, full curve, poor fit].

Which “activation” value does the source give for O=C(Nc1ccccc1N1CCOCC1)c1ccco1 here?
Its value is inactive: 13.2%.

With CCOc1ccc(NS(=O)(=O)c2ccc(Cl)c(C(=O)N(C)Cc3cccnc3)c2)cc1 as the molecule, how does the Potency read?
Its Potency is inconclusive: 22.4 µM [activator, single point].

With CN(C(=O)c1ccccc1C(=O)OCC(=O)Nc1ccc(S(N)(=O)=O)cc1)c1ccccc1 as the molecule, how does the Potency read?
The Potency was inconclusive: 0.891 µM [activator, full curve, poor fit].

For O=C(Nc1ccc(Cl)cc1)N1CCC(CO)(Cc2ccccc2)CC1, which “activation” value is on record?
The value was inactive: -1.6%.

Which “activation” value does the source give for O=C(CCN1CCN(c2ccccc2F)CC1)Nc1ccc2c(c1)OCO2 here?
The value was inactive: 8.36%.

For CC(OC(=O)CCOc1ccccc1)C(=O)Nc1ccc(Cl)cn1 (stereo not given), which “activation” value is on record?
Its value is inactive: 0%.

With Cc1ccc(SCC(=O)NC(=O)NCCC(C)C)c(C)c1 as the molecule, how does the Potency read?
The Potency was inconclusive: 5.01 µM [activator, single point].

Which “activation” value does the source give for Clc1cc(Cl)c2nc(N3CCOCC3)sc2c1 here?
Its value is inactive: 0%.

For O=C(NCC1CCCO1)c1ccc(Cl)c(S(=O)(=O)N2CCOCC2)c1 (stereo not given), which Potency is on record?
Its Potency is inconclusive: 8.91 µM [activator, partial curve, poor fit].

With COc1ccc(C(=O)NNC(=O)c2cccc3ccccc23)cc1 as the molecule, how does the activation read?
Its activation is inconclusive: 6.19% [activator].

With O=C(O)c1cccc(CN2C(=O)S/C(=C/c3cccc([N+](=O)[O-])c3)C2=O)c1 as the molecule, how does the “activation” value read?
The value was inactive: -14.5%.

For CC(=O)Oc1cccc(N2C(=O)C3C4C=CC(C4)C3C2=O)c1 (stereo not given), which Potency is on record?
The Potency was inconclusive: 4.47 µM [activator, single point].

For Cc1cccn2c(=O)c3cc(C(N)=S)c(=N)n(CCCN4CCOCC4)c3nc12, which “activation” value is on record?
The value was inactive: 0%.

With CC(C)(C)S(=O)N1Cc2cc(CO)cc(CCO)c2[C@H]1CCO (stereo not given in full) as the molecule, how does the Potency read?
Its Potency is inconclusive: 3.55 µM [activator, single point].

Which Potency does the source give for CCOC(=O)c1c(CSc2ccccc2)n(C)c2ccc(O)cc12 here?
Its Potency is inconclusive: 5.01 µM [activator, single point].

With O=C(O)C1CCN(c2ccc(S(=O)(=O)N3CCCCC3)cc2[N+](=O)[O-])CC1 as the molecule, how does the “activation” value read?
Its value is inactive: 0%.

Which Potency does the source give for CCOC(=O)/C=C/C(=O)OCC(=O)Nc1ccc(C)cc1 here?
Its Potency is inconclusive: 0.316 µM [activator, full curve, poor fit].

Which Potency does the source give for Cc1ccc(C(=O)N=c2sccn2C)o1 here?
The Potency was inconclusive: 2.24 µM [activator, partial curve, poor fit].

Which Potency does the source give for CCCc1nnc(NC(=O)CCC(=O)NC2CCCCCC2)s1 here?
Its Potency is inconclusive: 10 µM [activator, partial curve, poor fit].

Which Potency does the source give for COc1ccc(NC(=O)c2cc3c(CO)cnc(C)c3oc2=Nc2cccc(F)c2)c(OC)c1 here?
Its Potency is inconclusive: 5.01 µM [activator, single point].

With COc1ccc(C)cc1S(=O)(=O)Nc1ccc(F)c(Cl)c1 as the molecule, how does the “activation” value read?
The value was inactive: -3.26%.

With Cc1ccc2nc(-c3ccc(NC(=O)COC(=O)c4ccc(Br)o4)cc3)sc2c1 as the molecule, how does the “activation” value read?
Its value is inactive: -7.45%.

Which “activation” value does the source give for CSC1=NC(C)(C)C=C(/C=C/c2c(Cl)cccc2Cl)N1 here?
Its value is inactive: -2.09%.

Which Potency does the source give for O=C(CN(Cc1ccccc1)C(=O)c1csnn1)NCc1ccc2c(c1)OCO2 here?
Its Potency is inconclusive: 5.01 µM [activator, single point].

For CCCSC1=C(C#N)C(c2cccs2)C(C(=O)Nc2ccccc2)=C(C)N1 (stereo not given), which “activation” value is on record?
Its value is inactive: -26.2%.

For C/C(=N/NC(=O)c1ccc(Br)s1)c1ccncc1, which Potency is on record?
The Potency was inconclusive: 2.82 µM [activator, partial curve, poor fit].

Which Potency does the source give for Nc1nonc1C(=O)N1CCCC1 here?
The Potency was inconclusive: 0.447 µM [activator, full curve, poor fit].

With Cc1ccc(CS(=O)(=O)CCC(=O)NCc2ccc(F)cc2)cc1 as the molecule, how does the Potency read?
The Potency was inconclusive: 3.98 µM [activator, single point].

With Cc1ccccc1-c1ccnc2[nH]n(-c3ccccc3)c(=O)c12 as the molecule, how does the Potency read?
Its Potency is inconclusive: 5.01 µM [activator, single point].

Which Potency does the source give for C/C(=N\NC(=O)c1nc2ccccn2c1C)c1cc2ccccc2o1 here?
The Potency was inconclusive: 15.8 µM [activator, single point].

With Cc1cc(NC(=O)CN2C(=O)NC3(CCCCC3C)C2=O)no1 (stereo not given) as the molecule, how does the Potency read?
Its Potency is inconclusive: 14.1 µM [activator, single point].

Which “activation” value does the source give for Cn1c(CS(=O)Cc2c(Cl)cccc2Cl)nnc1SCc1ccc(Cl)cc1 (stereo not given) here?
The value was inactive: 15%.

Which Potency does the source give for CCN(CC)S(=O)(=O)c1cccc(C(=O)NN2Cc3ccccc3C2=N)c1 here?
The Potency was inconclusive: 3.55 µM [activator, single point].

Which Potency does the source give for Cc1nn(CCC(N)=O)c2nc(-c3cccs3)cc(C(F)(F)F)c12 here?
The Potency was inconclusive: 5.01 µM [activator, single point].

Which Potency does the source give for Clc1ccc(-c2nc3ccccc3nc2-c2ccccc2)cc1 here?
Its Potency is inconclusive: 3.16 µM [activator, full curve, poor fit].

For COc1ccc(-c2nc(CN3CCN(C(=O)c4ccco4)CC3)c(C)o2)c(OC)c1C, which Potency is on record?
The Potency was inconclusive: 5.01 µM [activator, single point].
